Among the data in PMC5029927 are binding values, retold here.

Results are given in words; binding and its absence hold for the method and conditions named. In cells and extracts the contact can be indirect. Binding can be weak; no strength is given. Sequences can lack the tags named with a protein.

The assay concerns the target T1, nYFP-SconB (Aspergillus fumigatus) (UniProt B0XTS1).
T1 sequence: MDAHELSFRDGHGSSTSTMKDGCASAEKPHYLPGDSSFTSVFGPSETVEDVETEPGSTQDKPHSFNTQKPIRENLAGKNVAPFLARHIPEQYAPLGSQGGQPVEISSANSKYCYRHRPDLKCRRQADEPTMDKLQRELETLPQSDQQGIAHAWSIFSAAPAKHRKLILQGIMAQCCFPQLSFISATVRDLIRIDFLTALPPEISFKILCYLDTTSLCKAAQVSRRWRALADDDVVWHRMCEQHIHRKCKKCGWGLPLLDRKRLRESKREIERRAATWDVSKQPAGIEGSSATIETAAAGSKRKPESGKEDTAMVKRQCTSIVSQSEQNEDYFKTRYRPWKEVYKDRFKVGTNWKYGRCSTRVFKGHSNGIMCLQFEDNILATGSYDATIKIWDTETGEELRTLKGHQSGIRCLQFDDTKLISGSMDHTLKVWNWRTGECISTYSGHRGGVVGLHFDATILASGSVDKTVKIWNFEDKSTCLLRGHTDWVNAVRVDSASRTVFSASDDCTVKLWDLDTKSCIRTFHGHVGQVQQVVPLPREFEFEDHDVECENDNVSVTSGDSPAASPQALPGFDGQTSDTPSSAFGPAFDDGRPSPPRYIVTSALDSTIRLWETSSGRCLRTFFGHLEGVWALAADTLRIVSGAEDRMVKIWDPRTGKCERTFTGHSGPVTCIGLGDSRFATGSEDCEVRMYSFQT
Description: split reporter; BiFC with split YFP fusions in hyphae of A. fumigatus (pyrG1 strain Af293.1), without H2O2 (non-stress conditions).

Consider cYFP-SkpA (Aspergillus fumigatus), for which the binding result was “binds”.
